Test results taken from US20230364096A1, “USE OF A COMBINATION COMPRISING A BTK INHIBITOR FOR TREATING CANCERS” (BEIGENE SWITZERLAND GMBH, priority 2016, published 2023).
For at least one compound, name, drawing or mass did not settle the structure.

Test system: REC-1 MCL xenograft
Experiment: Human REC-1 MCL xenograft model
Format: in vivo, mice
Settings: Compound 1 7.5 mg/kg BID; Ibrutinib 25 mg/kg BID; rituximab 200 µg/dose i.p. Q4D
Experimental: REC-1 cells were cultured in RPMI1640 complete medium supplemented with 10% (v/v) fetal bovine serum, and 100 µg/mL of penicillin and streptomycin. On the day of implantation, culture medium was replaced with fresh medium. Four hours later, media was removed and cells were collected as described above. Cells were re-suspended in cold (4° C.) PBS and same volume of matrigel was added to give a final concentration of 5×10^7 cells/mL for REC-1. Re-suspended cells were placed on ice prior to inoculation. The right flank region of each mouse was cleaned with 75% ethanol prior to cell inoculation. Animals were then injected subcutaneously with 1×10^7 REC-1 cells in 200 µl of cell suspension in the right front flank via a 26-gauge needle.
On day 9 after inoculation, animals were randomly divided into 6 groups with 7 mice per group. […] After implantation, primary tumor volume was measured in two dimensions using a calliper.
Individual body weight was recorded twice weekly, with mice being monitored daily for clinical signs of toxicity for the duration of the study. […]
Tumor volume was calculated using the formula: V = 0.5 × (a × b^2) where a and b are the long and short diameters of the tumor, respectively. Tumor growth inhibition (TGI) was calculated using the following formula: […]

Q: `C=CC(=O)N1CCC[C@@H](n2nc(-c3ccc(Oc4ccccc4)cc3)c3c(N)ncnc32)C1` [Ibrutinib] was tested. Which “tumor growth / anti-tumor effect (in words)” value did it give?
A: tumor growth was retarded
